Patent US6787530B1, “Use of pregnane-diones as analgesic agents” (priority 1996, dated 2004)

How the values were obtained:
rats = test: Loss of righting reflex and loss of coordination in the rotarod test after intraperitoneal dosing; details: ip; Saffan 2 ml/kg, alphaxalone 18 mg/kg, alphadolone 6 mg/kg; groups of 10 rats
Source text: (§1) Groups of 10 rats were examined for the duration of the loss of righting reflex and loss of coordination in the rotarod test and also for antinociceptive effects in the electrical current threshold test measured in the tail. […] Thus we were able to compare the duration of sedation and anaesthesia and quantity of antinociception following intraperitoneal administration of the neurosteroid mixture and also following the components of the mixture at the doses which were given when the combination was used.
We have gone on to test the ability for alphadolone to produce sedation. We have given doses up to […] intraperitoneally of alphadolone.

[1] = system: spinal cord GABAA receptors; details: rat, in vivo
Source text: as §1
Rats were given a range of doses of alphadolone from 0.1 to 100 mg/kg intraperitoneally. The antinociceptive effect was measured using electrical current in the tail.

## CC(=O)[C@H]1CC[C@H]2[C@@H]3CC[C@H]4C[C@H](O)CC[C@]4(C)[C@H]3C(=O)C[C@]12C [alphaxalone, reference compound]
rats
  sedation and anaesthesia (loss of righting reflex, loss of coordination in rotarod test): same onset and duration of sedation and anaesthesia
[1]
  antinociceptive effects in the electrical current threshold test measured in the tail: no antinociceptive effects whatsoever
